{
  "source": "paper PMC11161787",
  "binders": {"B1": {"name": "mCherry-tagged SHC1 (protein, UniProt P29353 1-583)", "chain": "MDLLPPKPKYNPLRNESLSSLEEGASGSTPPEELPSPSASSLGPILPPLPGDDSPTTLCSFFPRMSNLRLANPAGGRPGSKGEPGRAADDGEGIVGAAMPDSGPLPLLQDMNKLSGGGGRRTRVEGGQLGGEEWTRHGSFVNKPTRGWLHPNDKVMGPGVSYLVRYMGCVEVLQSMRALDFNTRTQVTREAISLVCEAVPGAKGATRRRKPCSRPLSSILGRSNLKFAGMPITLTVSTSSLNLMAADCKQIIANHHMQSISFASGGDPDTAEYVAYVAKDPVNQRACHILECPEGLAQDVISTIGQAFELRFKQYLRNPPKLVTPHDRMAGFDGSAWDEEEEEPPDHQYYNDFPGKEPPLGGVVDMRLREGAAPGAARPTAPNAQTPSHLGATLPVGQPVGGDPEVRKQMPPPPPCPGRELFDDPSYVNVQNLDKARQAVGGAGPPNPAINGSAPRDLFDMKPFEDALRVPPPPQSVSMAEQLRGEPWFHGKLSRREAEALLQLNGDFLVRESTTTPGQYVLTGLQSGQPKHLLLVDPEGVVRTKDHRFESVSHLISYHMDNHLPIISAGSELCLQQPVERKL"}},
  "target": "EGFP-tagged CCDC6-RET fusion protein",
  "assay": "co-IP; HEK293T cells expressing EGFP-tagged CCDC6-RET (or EV) with mCherry-tagged GRB2, SHC1 or EV; anti-GFP IP, western blotting; cells treated with LOXO292 (1 µM), BLU667 (1 µM) or the solvent DMSO",
  "note": "These are yes or no findings as the source states them, for the method shown. Binding seen in cells or lysates may run through a third protein. A result given as binding can be weak or reduced; the word gives no strength. Tags and fused reporters may be left off the sequences shown.",
  "data": [
    {"binder": "B1", "values": [
      {"measurement": "binding", "value": "binds"}
    ]}
  ]
}
